Out of some 200,000 compounds screened, about 25 (0.01%) were called active. Inconclusive means that the source gave no clear call. Such entries were picked first, then a sample of the others. Calls follow the shape of the dose curve; as a rule, active = well fitted inhibition curve with a large enough effect in the signal ratio, with a control signal flat (not every such curve was filed as active); inconclusive = small, poorly fitted or top-dose-only effect, or effect the other way, or a change in a side signal; inactive = flat fitted curve, though single readings scatter; the % refers to the signal ratio. A potency beside an inconclusive call is a rough fit, not a confirmed value.
Experiment: qHTS Assay for Modulators of Lamin A Splicing
Conditions: HeLa LMNA splicing GFP/RFP minigene ratio, 48 h; ratio change, negative = inhibition: at 46.1 µM (top of the series) unless noted
Summary of the method: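 Read-out is the ratio of GFP to DsRed2 object intensity, acquired by 488 nm laser-scanning cytometry on HeLa lamin A-EGFP minigene reporter cells. Compound incubation 48 hrs at 37 °C in Opti-MEM with 2% FBS; DMSO 0.5% final.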
With `Cc1ccc(NC(=S)N/N=C/c2c(Cl)cccc2Cl)c(C)c1` the ratio change, negative = inhibition was inconclusive: 11.2%.
With `CCOc1ccc(/C=N/NC(=O)CN2CCSCC2)cc1` the ratio change, negative = inhibition was “inactive”.
For `N#CCC(=O)NNC(=S)NC(=O)C(c1ccccc1)c1ccccc1`, the ratio change, negative = inhibition was inconclusive: 13.1% [at 46 µM].
With `COc1ccccc1-c1noc(CCC(=O)Nc2cccc(C(F)(F)F)c2)n1` the Potency was inconclusive: 35.5 µM [fluorescent, single point].
With `CSc1nnc(-c2cc(-c3ccc(C)cc3)nc3ccccc23)o1` the ratio change, negative = inhibition was inconclusive: 22%.
With `FC(F)(F)c1cccc(OCCN2CCN(Cc3ccccc3)CC2)c1` the Potency was inconclusive: 35.5 µM [falling, partial curve].
With `CCOC(=O)CSC1=C(C#N)C(c2ccc(OC)cc2)C2=C(CC(C)(C)CC2=O)N1` (configuration not stated) the ratio change, negative = inhibition was inconclusive: -14.6%.
With `CCOc1ccc2nc(COC(=O)c3ccncc3)c(C(=O)c3ccccc3)[n+]([O-])c2c1` the ratio change, negative = inhibition was inconclusive: -3.63% [at 46 µM].
With `CCCCc1ccc(NC(=S)Nc2ccc(Cl)c(S(=O)(=O)N(C)C)c2)cc1` the Potency was inconclusive: 35.5 µM [falling, single point].
With `CSc1ccc2c(c1)N(CC[C@H]1CCCCN1C)c1ccccc1S2` the ratio change, negative = inhibition was inconclusive: -23.7%.
For `Cc1nc(SCC(=O)O)n[nH]1`, the ratio change, negative = inhibition was “inactive”.
With `COc1cc(CC(=O)Nc2cc(S(C)(=O)=O)ccc2Cl)cc(OC)c1OC` the ratio change, negative = inhibition was inconclusive: -8.87% [at 46 µM].
For `CCNC(=O)/C(C#N)=C/c1c(N2CCOCC2)nc2ccccn2c1=O`, the ratio change, negative = inhibition was “inactive”.
For `CCCCOc1c(C(=O)Nc2ccccc2)nnn1-c1ccccc1`, the ratio change, negative = inhibition was inconclusive: 13.5% [at 46 µM].
In the case of `O=S(=O)(c1ccc(Cl)cc1)N1CCCC1c1nc(-c2ccc(Cl)cc2)no1` (configuration not stated), the ratio change, negative = inhibition is reported as inconclusive: -41.3%.
For `Cc1cc(/C=N/NC(=O)c2ccccc2F)c(C)n1-c1ccccc1`, the ratio change, negative = inhibition was inconclusive: 14.7% [at 46 µM].
In the case of `Cc1cccc(NC(=S)c2nc3ccccc3s2)c1`, the ratio change, negative = inhibition is reported as inconclusive: 36%.
In the case of `COc1cccc(CNc2cnc3ccccc3c2)c1O`, the Potency is reported as inconclusive: 35.5 µM [fluorescent, single point].
For `C/C(=N\NC(=O)c1ccco1)c1ccc(NC(=O)c2ccccc2)cc1`, the ratio change, negative = inhibition was inconclusive: -12.1% [at 46 µM].
With `CCn1cc(C(=O)O)c(=O)c2cnc(N3CCNCC3)nc21` the ratio change, negative = inhibition was inconclusive: -15.9%.
With `O=C(NC1CCCCC1)C(c1ccc(Cl)cc1)N(C(=O)c1cnccn1)c1ccc2c(c1)OCO2` (configuration not stated) the ratio change, negative = inhibition was inconclusive: 1.28%.
For `O=C(COC(=O)c1ccc(NS(=O)(=O)c2cccs2)cc1)Nc1nc2c(F)c(F)c(F)cc2s1`, the ratio change, negative = inhibition was inconclusive: 13.4% [at 46 µM].
In the case of `COc1ccc(/C=N/Nc2cc(N(C)C)nc(N(C)C)n2)cc1`, the Potency is reported as inconclusive: 20 µM [falling, partial curve, poor fit].
In the case of `CN1CCCC(CC2Oc3ccccc3Sc3ccccc32)C1` (configuration not stated), the ratio change, negative = inhibition is reported as inconclusive: -18.5%.
In the case of `COc1ccccc1Nc1nc(-c2c(C)[nH]c3ccccc23)cs1`, the ratio change, negative = inhibition is reported as “inactive”.
With `O=C(NCC1COc2ccccc2O1)C1CCCN(S(=O)(=O)c2cccc3nsnc23)C1` (configuration not stated) the ratio change, negative = inhibition was inactive: 8.56% [at 0.0737 µM].
In the case of `CCC(Sc1nc(N)c(NC(=O)c2ccc(OC)cc2)c(=O)[nH]1)C(=O)O` (configuration not stated), the ratio change, negative = inhibition is reported as inconclusive: 16% [at 46 µM].
With `COc1ccc(-n2ncc3c(NCCCOC(C)C)ncnc32)cc1` the ratio change, negative = inhibition was inconclusive: -22% [at 46 µM].
In the case of `CCCCNC(=O)c1ccc2c(SCC(=O)O)c3c(nc2c1)CCCC3`, the ratio change, negative = inhibition is reported as “inactive”.
For `Cc1ccccc1OCCCC(=O)Nc1nccs1`, the Potency was inconclusive: 35.5 µM [falling, single point].
For `Cc1ccc(NC2=NCC(=O)N2Cc2ccc3c(c2)OCO3)c(C)c1`, the ratio change, negative = inhibition was “inactive”.
In the case of `O=C(NCc1cccc(Cl)c1)c1c2c(nc3ccccc13)C(=O)N(C1CCCCC1)C2`, the ratio change, negative = inhibition is reported as “inactive”.
For `O=C(c1ccc(Cl)cc1)[C@@H]1[C@@H]2C(=O)N(c3cccc4ccccc34)C(=O)[C@@H]2C2c3ccccc3C=NN21` (some centres not stated), the ratio change, negative = inhibition was “inactive”.
With `C=CCNC(=S)N/N=C/c1ccc(C(F)(F)F)cc1` the Potency was inconclusive: 12.6 µM [activator, partial curve, poor fit].
In the case of `c1ccc(-c2csc3ncnc(NCCCN4CCOCC4)c23)cc1`, the Potency is reported as inconclusive: 25.1 µM [falling, single point].
For `COc1ccc(N2C(=O)CSC2c2cccs2)cc1` (configuration not stated), the ratio change, negative = inhibition was inconclusive: 3.39%.
In the case of `Cc1ccc(C(=O)/C=C/c2ccccc2)o1`, the Potency is reported as inconclusive: 35.5 µM [cytotoxic, single point].
For `O=C(NCC1CCCO1)c1ccc2c(=O)n(CC3CCCO3)c(=S)[nH]c2c1` (configuration not stated), the ratio change, negative = inhibition was “inactive”.
With `COc1ccc(NC(=O)/C(=C/c2ccc(OC(C)=O)c(OC)c2)NC(C)=O)cc1` the ratio change, negative = inhibition was “inactive”.
With `Clc1cc(Br)ccc1OCCOCCOc1cccc2cccnc12` the ratio change, negative = inhibition was inconclusive: -30.4%.
For `Cc1cccc(C)c1NC1=NC2(CCCCC2)N=C(N)N1`, the ratio change, negative = inhibition was “inactive”.
With `Cc1[nH]c2ccccc2c1C(=O)/C=C/c1ccccc1` the Potency was inconclusive: 14.1 µM [inhibitor, single point].
In the case of `COc1cccc(OCCn2ccnc2)c1`, the ratio change, negative = inhibition is reported as “inactive”.
For `COCc1nnc(NC(C)=O)s1`, the ratio change, negative = inhibition was inconclusive: -6.51% [at 46 µM].
In the case of `Cc1cccc(OCC(=O)Nc2nnc(S(=O)(=O)N3CCc4ccccc43)s2)c1`, the ratio change, negative = inhibition is reported as inconclusive: 34.5% [at 46 µM].
For `CC1(C)c2ssc(=S)c2-c2ccccc2N1C(=O)c1ccco1`, the ratio change, negative = inhibition was inconclusive: 7.26%.
In the case of `Cc1nc(N2CCC(C)CC2)c2oc3ccccc3c2n1`, the ratio change, negative = inhibition is reported as inconclusive: -28.2%.
In the case of `CC1=C(C(=O)N2CCCCC2)C(c2cccs2)NC(=O)N1` (configuration not stated), the ratio change, negative = inhibition is reported as inconclusive: 13.7%.
For `COc1cc(/C=C2\SC(=O)NC2=O)ccc1Oc1ccc([N+](=O)[O-])cc1[N+](=O)[O-]`, the Potency was inconclusive: 12.6 µM [inhibitor, partial curve].
In the case of `O=C(NCc1ccccc1Cl)c1ccc2oc(=O)n(Cc3ccccc3)c2c1`, the ratio change, negative = inhibition is reported as “inactive”.
For `O=C(Oc1ccc(/C=N/NC(=O)c2ccccc2O)cc1)c1ccccc1`, the ratio change, negative = inhibition was “inactive”.

— PubChem BioAssay AID1487 (National Center for Advancing Translational Sciences (NCATS), 2009)
% is scaled to controls: 0 for no effect and ±100 for the full control effect; potency is read from the fitted curve at half-maximal effect.
